The list is a part of this screen's results and no random one: it is rich in T/C values a quarter to a half above the control, in often repeated tests (any T/C) and in doses without a T/C. Other doses and runs of a compound stand elsewhere. T/C is the treated group as % of the vehicle group. Some entries give survivors of the animals treated and no T/C: the source files T/C as zero there, which appears to mark a toxic dose or a test without result, not a measured value. Some survivor counts are full or nearly so, which does not show that the dose was tolerated: the source hardly ever lists a survival T/C far under the control, and the zero likely stands for such cases as well. Survivors were counted at the toxicity check, usually on the fifth day, unless a day is given; later deaths do not show. Schedules are NCI's codes, read here as Q, the interval in days (D) or hours (H), X, the number of doses. Some molecules as drawn cover several salts, stereoisomers or complexes of the source; a dose is that of the sample tested. Some entries hold several experiments; the results are listed from low to high. Where survival is the endpoint, this PubChem deposit counts one and a half times the control or more as active, and values a quarter to a half above the control carry no call in these data; other NCI protocols may use other cut-offs. Counts like (3×) say how often a value occurs here. Some T/C values are followed by the survivors on the day toxicity was checked, most often the fifth; without a count, all were alive then.
Tested on: CD2F1 mice, L1210 leukemia ip, survival T/C
Assay: NCI In Vivo Anticancer Drug Screen. Data for tumor model L1210 Leukemia (intraperitoneal) in CD2F1 (CDF1) mice
Conditions: T/C endpoint: mean survival time, higher T/C = longer survival
How it was run: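 Mice carrying a transplanted tumor received test compound or vehicle alone. The value is the measurement in the treated group divided by that in the vehicle-treated control group.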

[1] = dose: 400.0 mg/kg/injection, schedule: Q01DX001 (ip), vehicle: saline
[2] = dose: 200.0 mg/kg/injection, schedule: Q01DX009 (ip), vehicle: water
[3] = dose: 100.0 mg/kg/injection, schedule: Q01DX009 (ip), vehicle: Klucel (hydroxypropylcellulose) (HPC)
[4] = dose: 200.0 mg/kg/injection, schedule: Q01DX009 (ip), vehicle: Klucel (hydroxypropylcellulose) (HPC)
[5] = dose: 100.0 mg/kg/injection, schedule: Q01DX009 (ip), vehicle: saline
[6] = dose: 200.0 mg/kg/injection, schedule: Q01DX009 (ip), vehicle: saline with Tween-80
[7] = dose: 400.0 mg/kg/injection, schedule: Q04DX003 (ip), vehicle: saline with Tween-80
[8] = dose: 300.0 mg/kg/injection, schedule: Q01DX001 (ip), vehicle: other
[9] = dose: 400.0 mg/kg/injection, schedule: Q01DX009 (ip), vehicle: saline
[10] = dose: 100.0 mg/kg/injection, schedule: Q01DX009 (ip), vehicle: saline with Tween-80
[11] = dose: 400.0 mg/kg/injection, schedule: Q01DX009 (ip), vehicle: saline with Tween-80
[12] = dose: 300.0 mg/kg/injection, schedule: Q01DX001 (ip), vehicle: saline
[13] = dose: 100.0 mg/kg/injection, schedule: Q01DX009 (ip), vehicle: water

Compound: CO[C@@]12[C@@H]3N[C@@H]3CN1C1=C(C(=O)C(NCc3ccco3)=C(C)C1=O)[C@@H]2COC(N)=O
- T/C (dose: 6.0 mg/kg/injection, schedule: Q01DX001 (ip), vehicle: distilled water + Tween-80): 133 % of control
- T/C (dose: 12.0 mg/kg/injection, schedule: Q01DX001 (ip), vehicle: distilled water + Tween-80): 127 % of control

Compound: O=C(O)C(O)C(O)C1[O][Sb][O]C1CO (stereo not given)
- survivor count [1]: 0 of 6

Compound: NC(N)=NC(N)=Nc1ccc([As](=O)(O)O)c(O)c1
- survivor count (dose: 200.0 mg/kg/injection, schedule: Q01DX009 (ip), vehicle: saline sonified): 1 of 6
- survivor count (dose: 400.0 mg/kg/injection, schedule: Q01DX009 (ip), vehicle: saline sonified): 0 of 6

Compound: [O-][n+]1ccccc1C[P+](c1ccccc1)(c1ccccc1)c1ccccc1
- survivor count [2]: 0 of 6

Compound: Cc1ccc(C(=O)[O][Hg][CH2]C2COC([CH2][Hg][O]C(=O)c3ccc(C)cc3)CO2)cc1 (stereo not given)
- survivor count (dose: 50.0 mg/kg/injection, schedule: Q01DX009 (ip), vehicle: Klucel (hydroxypropylcellulose) (HPC)): 6 of 6
- survivor count [3]: 0 of 6

Compound: O=C(CCc1ccc(O)cc1)ON1C(=O)CCC1=O
- survivor count [3]: 3 of 3
- survivor count [4]: 2 of 3

Compound: COC(CNCCO)c1ccccc1 (stereo not given)
- survivor count (dose: 200.0 mg/kg/injection, schedule: Q01DX001 (ip), vehicle: saline): 3 of 6
- survivor count [1]: 1 of 6

Compound: O=C1C(O)=C(c2ccccc2)C(=O)C(O)=C1c1ccccc1
- survivor count [5]: 3 of 10

Compound: O=C(O)Cc1ccccc1C(=O)O.[Pb]
- survivor count [6]: 6 of 6
- survivor count [7]: 6 of 6

Compound: O=C1N(Cc2ccccc2)CCS1(=O)=O
- survivor count [8]: 1 of 6

Compound: Cn1c(=O)c2c(ncn2C)n(C)c1=O
- T/C (dose: 128.0 mg/kg/injection, schedule: Q01DX001 (sc), vehicle: water, evaluated on day 7): 94, 98, 99, 103 % of control
- T/C (dose: 128.0 mg/kg/injection, schedule: Q01DX001 (sc), vehicle: water, evaluated on day 40): 100 % of control
- T/C (dose: 128.0 mg/kg/injection, schedule: Q01DX001 (sc), vehicle: water, evaluated on day 60): 98 % of control
- T/C (dose: 160.0 mg/kg/injection, schedule: Q01DX001 (sc), vehicle: water, evaluated on day 7): 95, 98 (2×), 104 % of control
- T/C (dose: 160.0 mg/kg/injection, schedule: Q01DX001 (sc), vehicle: water, evaluated on day 40): 98 % of control
- T/C (dose: 160.0 mg/kg/injection, schedule: Q01DX001 (sc), vehicle: water, evaluated on day 60): 104 % of control
- T/C (dose: 200.0 mg/kg/injection, schedule: Q01DX001 (sc), vehicle: water, evaluated on day 7): 96, 98, 101, 103 % of control
- T/C (dose: 200.0 mg/kg/injection, schedule: Q01DX001 (sc), vehicle: water, evaluated on day 40): 101 % of control
- T/C (dose: 200.0 mg/kg/injection, schedule: Q01DX001 (sc), vehicle: water, evaluated on day 60): 103 % of control
- T/C (dose: 250.0 mg/kg/injection, schedule: Q01DX001 (sc), vehicle: water, evaluated on day 7): 96, 98, 99, 109 % of control
- T/C (dose: 250.0 mg/kg/injection, schedule: Q01DX001 (sc), vehicle: water, evaluated on day 40): 100 % of control [9 of 10 alive]
- T/C (dose: 250.0 mg/kg/injection, schedule: Q01DX001 (sc), vehicle: water, evaluated on day 60): 109 % of control

Compound: O=NC1C(=O)C2CC1CC2C(=O)OC(=O)C1CC2CC1C(=O)C2N=O (stereo not given)
- survivor count [8]: 0 of 6

Compound: Cc1ccc(S(=O)(=O)N/N=C2/CC3CCC(C)(C2)C3)cc1 (stereo not given)
- survivor count (dose: 100.0 mg/kg/injection, schedule: Q04DX003 (ip), vehicle: saline with Tween-80): 6 of 6
- survivor count (dose: 200.0 mg/kg/injection, schedule: Q04DX003 (ip), vehicle: saline with Tween-80): 6 of 6

Compound: CC1C=NNC1=O (stereo not given)
- T/C [3]: 132 % of control
- T/C [4]: 147 % of control
- T/C (dose: 256.0 mg/kg/injection, schedule: Q01DX009 (ip), vehicle: saline): 125 % of control
- T/C [9]: 139 % of control
- T/C (dose: 512.0 mg/kg/injection, schedule: Q01DX009 (ip), vehicle: saline): 132 % of control

Compound: CN(C)N=Nc1c(F)cc(F)cc1F
- T/C [10]: 131 % of control
- survivor count [11]: 2 of 6

Compound: CN1C(C)(C)CC(CN2c3ccccc3Sc3ccccc32)C1(C)C (stereo not given)
- survivor count [7]: 0 of 6

Compound: CSc1nccc2ccccc12
- survivor count (dose: 200.0 mg/kg/injection, schedule: Q01DX009 (ip), vehicle: other): 1 of 6

Compound: COc1cc(C(=O)C=O)cc(OC)c1OC
- survivor count [10]: 3 of 6
- survivor count [6]: 2 of 6
- survivor count [7]: 3 of 6

Compound: CC(C)c1ccccc(=O)c1O.CC(C)c1ccccc(=O)c1O.[Cu]
- survivor count (dose: 50.0 mg/kg/injection, schedule: Q01DX009 (ip), vehicle: saline with Tween-80): 2 of 6
- survivor count [10]: 0 of 6
- survivor count [6]: 0 of 6

Compound: CN1CCCC(OC(=O)C(c2ccccc2)C2(O)CCCC2)C1 (stereo not given)
- survivor count (dose: 150.0 mg/kg/injection, schedule: Q01DX001 (ip), vehicle: saline): 1 of 6
- survivor count [12]: 0 of 6

Compound: C/C(CC(=O)Nc1ccccn1)=N\c1ccccn1
- survivor count [7]: 4 of 6

Compound: Nc1nc(F)nc2nc[nH]c12
- survivor count (dose: 75.0 mg/kg/injection, schedule: Q01DX001 (ip), vehicle: other): 0 of 6
- survivor count (dose: 150.0 mg/kg/injection, schedule: Q01DX001 (ip), vehicle: other): 0 of 6
- survivor count [8]: 0 of 6

Compound: c1coc(CNc2ncnc3c2ncn3CCCCCCn2cnc3c(NCc4ccco4)ncnc32)c1
- survivor count (dose: 8.0 mg/kg/injection, schedule: Q01DX005 (ip), vehicle: other): 3 of 3

Compound: O=C1C=CC(=O)N1c1ccc2c(c1)OCO2
- survivor count (dose: 25.0 mg/kg/injection, schedule: Q01DX009 (ip), vehicle: saline with Tween-80): 2 of 6

Compound: CCCCCCCCCCCCCCCC(=O)N1CCC(N2CCCCC2)CC1
- survivor count [7]: 6 of 6

Compound: O=[N+]([O-])c1cccc(Cc2nc3ccccc3nc2-c2ccccc2)c1
- survivor count (dose: 200.0 mg/kg/injection, schedule: Q01DX001 (ip), vehicle: saline with Tween-80): 6 of 6

Compound: Cc1cc(C)c(NC(=O)CC#N)c(C)c1
- survivor count [10]: 3 of 3
- survivor count [6]: 3 of 3
- survivor count [11]: 3 of 3

Compound: c1ccc(NC2=NCCO2)nc1
- survivor count (dose: 400.0 mg/kg/injection, schedule: Q01DX001 (ip), vehicle: saline with Tween-80): 3 of 6

Compound: CN(C)CCC(=O)C(c1ccccc1)c1ccccc1
- survivor count [12]: 0 of 6

Compound: COC(=O)c1cccc2c1ccc1ccccc12
- survivor count [12]: 0 of 6

Compound: ClCC[N+]12CC[N+](CCCl)(CC1)C2
- T/C (dose: 44.0 mg/kg/injection, schedule: Q01DX009 (ip), vehicle: saline): 140 % of control
- T/C (dose: 50.0 mg/kg/injection, schedule: Q01DX009 (ip), vehicle: saline): 130 % of control
- T/C (dose: 75.0 mg/kg/injection, schedule: Q04DX003 (ip), vehicle: saline): 130 % of control
- T/C [5]: 139 [5 of 6 alive], 145, 176, 189 % of control
- T/C [13]: 125 % of control
- survivor count [13]: 5 of 6
- T/C [2]: 138 and 143 % of control
- T/C (dose: 300.0 mg/kg/injection, schedule: Q04DX003 (ip), vehicle: saline): 147 % of control
- survivor count [9]: 3 of 10, 2 of 6, 4 of 6
- T/C (dose: 600.0 mg/kg/injection, schedule: Q04DX003 (ip), vehicle: saline): 137 % of control

Compound: c1ccc(CNc2nnnn2C2CCCCC2)cc1
- survivor count (dose: 100.0 mg/kg/injection, schedule: Q04DX002 (ip), vehicle: saline with Tween-80): 0 of 3
- survivor count (dose: 200.0 mg/kg/injection, schedule: Q04DX002 (ip), vehicle: saline with Tween-80): 0 of 3
- survivor count (dose: 400.0 mg/kg/injection, schedule: Q04DX002 (ip), vehicle: saline with Tween-80): 0 of 3
